PubChem BioAssay AID1259305 – Sanger Institute – 2017
The deposit covers 160 reagents; this is a random part of them. Over the whole deposit, 96 (60%) got an active call. 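Each call covers one siRNA sequence in one cell line only; gene-level confirmation needs agreement across siRNAs and lines.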 A number with no mark means an inactive call. The numbers tell different reagents against one gene apart. No viability above 1 is reported: the scale is capped. Not given: the amount of reagent, the time to read-out.

- Test: 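Retest kinome siRNA screen hits for synergy with drugs in DIFI cells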 (follow-up of hits)
- Cell system: human DIFI colorectal cancer cells
- Reagents: single siRNA against human genes
- Treatment: BYL719 1 µM, cetuximab 5 µg/ml or trametinib 10 nM, or DMSO vehicle, added one day after transfection; exposure time not given
- Detection: 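Cell survival as a ratio to a non-targeting siRNA control pool, mean of replicates; per-drug synergy scores set knock-down plus drug against each alone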
- Reading the numbers: synergy score with BYL719 and synergy score with Cetuximab and synergy score with Trametinib: higher = stronger combined killing than expected; viability, knock-down alone: higher = more cells surviving knock-down; viability with Cetuximab: higher = more cells surviving knock-down plus drug
- Hit rule: 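Synergy score over 0.10 with any single drug gives a synergistic, that is synthetic lethal, call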

| Target gene | siRNA no. | synergy score with BYL719 | synergy score with Cetuximab | synergy score with Trametinib | viability, knock-down alone | viability with Cetuximab |
| --- | --- | --- | --- | --- | --- | --- |
| BMPR2 (bone morphogenetic protein receptor type 2) | 1 | -0.0458 (active) | 0.117 | -0.167 | 1 | 0.279 |
| BMPR2 (bone morphogenetic protein receptor type 2) | 2 | 0.0724 (active) | 0.142 | 0.208 | 0.785 | 0.169 |
| BMPR2 (bone morphogenetic protein receptor type 2) | 3 | -0.0366 | -0.00158 | -0.00237 | 0.977 | 0.388 |
| BMPR2 (bone morphogenetic protein receptor type 2) | 4 | -0.199 | 0.096 | -0.114 | 1 | 0.3 |
| GUCY2D (guanylate cyclase 2D, retinal) | 1 | -0.00726 | 0.0647 | 0.0523 | 1 | 0.331 |
| GUCY2D (guanylate cyclase 2D, retinal) | 2 | 0.0985 (active) | 0.141 | 0.224 | 0.905 | 0.217 |
| GUCY2D (guanylate cyclase 2D, retinal) | 3 | -0.0172 | -0.0542 | 0.0642 | 0.789 | 0.367 |
| GUCY2D (guanylate cyclase 2D, retinal) | 4 | -0.224 | -0.0368 | -0.0952 | 1 | 0.433 |
| MAP3K8 (mitogen-activated protein kinase kinase kinase 8) | 1 | 0.0392 | 0.0301 | 0.0311 | 1 | 0.366 |
| MAP3K8 (mitogen-activated protein kinase kinase kinase 8) | 2 | 0.0934 (active) | 0.0478 | 0.11 | 0.801 | 0.269 |
| MAP3K8 (mitogen-activated protein kinase kinase kinase 8) | 3 | 0.0273 (active) | -0.0378 | 0.12 | 0.764 | 0.34 |
| MAP3K8 (mitogen-activated protein kinase kinase kinase 8) | 4 | 0.145 (active) | 0.183 | 0.249 | 0.827 | 0.144 |
| HSPB8 (heat shock protein family B (small) member 8) | 1 | 0.0689 (active) | 0.145 | 0.117 | 0.571 | 0.0812 |
| HSPB8 (heat shock protein family B (small) member 8) | 2 | 0.0179 | 0.0123 | -0.0172 | 1 | 0.384 |
| HSPB8 (heat shock protein family B (small) member 8) | 3 | 0.0766 (active) | 0.0388 | 0.17 | 0.833 | 0.291 |
| HSPB8 (heat shock protein family B (small) member 8) | 4 | 0.0531 (active) | 0.0246 | 0.141 | 0.835 | 0.306 |
| EPHA6 (EPH receptor A6) | 1 | 0.053 (active) | 0.00376 | 0.107 | 0.638 | 0.249 |
| EPHA6 (EPH receptor A6) | 2 | 0.143 (active) | 0.146 | 0.135 | 0.799 | 0.171 |
| EPHA6 (EPH receptor A6) | 3 | 0.0807 | -0.031 | 0.0923 | 0.691 | 0.305 |
| EPHA6 (EPH receptor A6) | 4 | 0.0845 | 0.0126 | -0.0149 | 1 | 0.383 |
| PIM1 (Pim-1 proto-oncogene, serine/threonine kinase) | 1 | 0.0589 (active) | 0.0996 | 0.167 | 0.548 | 0.118 |
| PIM1 (Pim-1 proto-oncogene, serine/threonine kinase) | 2 | 0.0676 (active) | 0.0804 | 0.154 | 1 | 0.316 |
| PIM1 (Pim-1 proto-oncogene, serine/threonine kinase) | 3 | -0.0434 (active) | 0.114 | 0.195 | 0.925 | 0.252 |
| PIM1 (Pim-1 proto-oncogene, serine/threonine kinase) | 4 | 0.06 | 0.0248 | 0.0794 | 0.876 | 0.322 |
| ACVR1 (activin A receptor type 1) | 1 | -0.248 | 0.0562 | -0.153 | 1 | 0.34 |
| ACVR1 (activin A receptor type 1) | 2 | -0.00118 | 0.096 | 0.0198 | 0.983 | 0.293 |
| ACVR1 (activin A receptor type 1) | 3 | -0.205 (active) | 0.109 | -0.109 | 1 | 0.287 |
| ACVR1 (activin A receptor type 1) | 4 | -0.0575 (active) | 0.215 | 0.232 | 0.969 | 0.168 |

Part of the list above, reformatted:
Target gene	siRNA no.	synergy score with BYL719	synergy score with Cetuximab	synergy score with Trametinib	viability, knock-down alone	viability with Cetuximab
GUCY2D (guanylate cyclase 2D, retinal)	4	-0.224	-0.0368	-0.0952	1	0.433
MAP3K8 (mitogen-activated protein kinase kinase kinase 8)	1	0.0392	0.0301	0.0311	1	0.366
MAP3K8 (mitogen-activated protein kinase kinase kinase 8)	2	0.0934 (active)	0.0478	0.11	0.801	0.269
MAP3K8 (mitogen-activated protein kinase kinase kinase 8)	3	0.0273 (active)	-0.0378	0.12	0.764	0.34

Next entries follow:
| Target gene | siRNA no. | synergy score with BYL719 | synergy score with Cetuximab | synergy score with Trametinib | viability, knock-down alone | viability with Cetuximab |
| --- | --- | --- | --- | --- | --- | --- |
| CDKN2D (cyclin dependent kinase inhibitor 2D) | 1 | 0.0463 (active) | 0.208 | 0.384 | 0.827 | 0.12 |
| CDKN2D (cyclin dependent kinase inhibitor 2D) | 2 | 0.00563 (active) | 0.126 | 0.0714 | 0.678 | 0.142 |
| CDKN2D (cyclin dependent kinase inhibitor 2D) | 3 | 0.0356 (active) | 0.0767 | 0.218 | 0.96 | 0.303 |
| CDKN2D (cyclin dependent kinase inhibitor 2D) | 4 | 0.0457 (active) | 0.0956 | 0.127 | 0.593 | 0.139 |
| PLK1 (polo like kinase 1) | 1 | 0.0604 | 0.023 | 0.0873 | 0.429 | 0.147 |
| PLK1 (polo like kinase 1) | 2 | 0.077 | 0.00297 | 0.0512 | 0.357 | 0.138 |
| PLK1 (polo like kinase 1) | 3 | 0.0915 | 0 | 0.037 | 0.42 | 0.166 |
| PLK1 (polo like kinase 1) | 4 | 0.0697 (active) | 0.0636 | 0.108 | 0.387 | 0.0895 |
| MPP3 (MAGUK p55 scaffold protein 3) | 1 | -0.124 | 0.0527 | -0.0916 | 1 | 0.343 |
| MPP3 (MAGUK p55 scaffold protein 3) | 2 | -0.0629 (active) | 0.0268 | 0.113 | 0.731 | 0.263 |
| MPP3 (MAGUK p55 scaffold protein 3) | 3 | 0.288 (active) | 0.243 | 0.348 | 0.752 | 0.0543 |
| MPP3 (MAGUK p55 scaffold protein 3) | 4 | 0.0733 (active) | 0.207 | 0.225 | 0.79 | 0.105 |
| CDK6 (cyclin dependent kinase 6) | 1 | 0.198 (active) | 0.103 | 0.109 | 0.966 | 0.279 |
| CDK6 (cyclin dependent kinase 6) | 2 | 0.115 (active) | 0.118 | 0.0762 | 0.683 | 0.152 |
| CDK6 (cyclin dependent kinase 6) | 3 | -0.0656 | 0.0581 | 0.0392 | 0.957 | 0.321 |
| CDK6 (cyclin dependent kinase 6) | 4 | -0.021 (active) | 0.0691 | 0.17 | 0.969 | 0.315 |
| MARK3 (microtubule affinity regulating kinase 3) | 1 | -0.0155 | 0.0377 | -0.0412 | 0.952 | 0.339 |
| MARK3 (microtubule affinity regulating kinase 3) | 2 | -0.176 | -0.0182 | -0.104 | 1 | 0.414 |
| MARK3 (microtubule affinity regulating kinase 3) | 3 | -0.125 (active) | 0.26 | 0.0238 | 1 | 0.136 |
| MARK3 (microtubule affinity regulating kinase 3) | 4 | -0.146 (active) | 0.0392 | 0.127 | 0.765 | 0.264 |
| SYK (spleen associated tyrosine kinase) | 1 | 0.157 (active) | 0.0786 | 0.215 | 0.714 | 0.204 |
| SYK (spleen associated tyrosine kinase) | 2 | -0.0895 (active) | 0.222 | 0.226 | 0.937 | 0.149 |
| SYK (spleen associated tyrosine kinase) | 3 | 0.0511 (active) | 0.148 | 0.229 | 0.824 | 0.179 |
| SYK (spleen associated tyrosine kinase) | 4 | -0.127 | 0.0638 | -0.197 | 1 | 0.332 |
| SF3B1 (splicing factor 3b subunit 1) | 1 | -0.0145 | -0.11 | -0.0419 | 0.613 | 0.353 |
| SF3B1 (splicing factor 3b subunit 1) | 2 | -0.0584 | -0.102 | 0.00856 | 0.582 | 0.333 |
| SF3B1 (splicing factor 3b subunit 1) | 3 | 0.00135 | -0.0342 | -0.0145 | 0.873 | 0.38 |
| SF3B1 (splicing factor 3b subunit 1) | 4 | 0.00381 | -0.0268 | -0.0381 | 0.656 | 0.286 |
| BRAF (B-Raf proto-oncogene, serine/threonine kinase) | 1 | 0.0186 | 0.0233 | 0.0726 | 0.542 | 0.191 |
| BRAF (B-Raf proto-oncogene, serine/threonine kinase) | 2 | 0.129 (active) | 0.0492 | 0.187 | 0.554 | 0.17 |
| BRAF (B-Raf proto-oncogene, serine/threonine kinase) | 3 | 0.161 (active) | 0.182 | 0.298 | 0.922 | 0.183 |
| BRAF (B-Raf proto-oncogene, serine/threonine kinase) | 4 | 0.227 (active) | 0.0368 | 0.146 | 0.915 | 0.325 |
| RPS6KA4 (ribosomal protein S6 kinase A4) | 1 | 0.0086 (active) | 0.0843 | 0.157 | 0.858 | 0.255 |
| RPS6KA4 (ribosomal protein S6 kinase A4) | 2 | 0.128 (active) | 0.0427 | 0.155 | 0.823 | 0.283 |
| RPS6KA4 (ribosomal protein S6 kinase A4) | 3 | -0.0432 | 0.0542 | 0.0425 | 0.843 | 0.28 |
| RPS6KA4 (ribosomal protein S6 kinase A4) | 4 | 0.249 (active) | 0.0841 | 0.186 | 1 | 0.312 |
